The results in this text go back to doi:10.1101/2024.11.20.624481.

The target of the test is T1, Armadillo BTB Arabidopsis protein 1 (endogenous, plant extracts) (Arabidopsis thaliana (endogenous in plants)) (UniProt B7U179).
T1 sequence: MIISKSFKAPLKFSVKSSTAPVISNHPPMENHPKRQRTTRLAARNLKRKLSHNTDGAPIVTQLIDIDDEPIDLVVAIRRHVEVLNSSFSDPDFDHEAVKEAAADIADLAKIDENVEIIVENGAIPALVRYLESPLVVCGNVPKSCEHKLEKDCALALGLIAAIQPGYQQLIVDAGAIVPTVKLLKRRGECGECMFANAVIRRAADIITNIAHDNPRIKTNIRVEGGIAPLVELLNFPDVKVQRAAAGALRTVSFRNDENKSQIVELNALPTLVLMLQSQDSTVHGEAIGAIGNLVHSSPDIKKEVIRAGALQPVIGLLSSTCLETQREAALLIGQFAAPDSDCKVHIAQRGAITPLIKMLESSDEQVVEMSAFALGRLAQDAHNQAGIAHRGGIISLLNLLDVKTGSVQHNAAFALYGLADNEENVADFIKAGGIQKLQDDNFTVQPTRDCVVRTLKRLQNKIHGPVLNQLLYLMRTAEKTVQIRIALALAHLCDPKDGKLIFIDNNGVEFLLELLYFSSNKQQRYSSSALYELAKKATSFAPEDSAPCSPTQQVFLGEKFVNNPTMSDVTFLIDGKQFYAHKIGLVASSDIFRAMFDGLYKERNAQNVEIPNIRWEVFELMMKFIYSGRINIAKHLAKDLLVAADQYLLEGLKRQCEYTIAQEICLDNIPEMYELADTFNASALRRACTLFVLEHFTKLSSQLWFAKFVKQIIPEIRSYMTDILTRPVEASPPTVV
Nature of the test: co-IP.

Results are given in words; binding and its absence hold for the method and conditions named. Binding seen in cells or lysates may run through a third protein. A result given as binding can be weak or reduced; the word gives no strength.

Turning to “AIP10-YFP C-terminal fusion protein (Arabidopsis thaliana)”, the binding entry is given as “binds”.
